Measurements reported in PubChem BioAssay AID1053208 (Peter MacCallum Cancer Centre, 2014).
Screen: 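Genes whose silencing cuts survival of bone tumour cells only with doxorubicin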 (primary screen). Cell system: mouse osteosarcoma cells, early-passage culture from an engineered mouse model of fibroblastic bone tumour. Knock-down reagent: siRNA pool against mouse genes, 40 nM. Duration: about 120 h (48 h before drug, then 72 h with drug). Treatment: doxorubicin 100 nM for 72 h, roughly 30-40% inhibitory dose. Measurement: 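Luminescent ATP signal taken as viability with or without 100 nM doxorubicin for 72 h; mean of two wells set against non-targeting siRNA and turned into robust z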. Direction: viability z-score with doxorubicin: higher = more viable cells under doxorubicin; viability z-score without drug: higher = more viable cells with knock-down alone. Rule for the call: 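Called active if knock-down leaves viability unchanged without drug (z within -2 to 2) but lowers it with doxorubicin (z at or under -2)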.
The whole screen tested about 17,000 reagents; shown is a random part of them. 788 of them (4.7%) were called active. 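Calls rest on z-score classes alone; an extra cut-off of viability at most 70% of control was not applied to them.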 A number with no mark means an inactive call. Reagents against one gene are numbered here. Further read-outs or replicates are left out here. No sequences are given here.

Cct2 (chaperonin containing TCP1 subunit 2): combined z-score class = low cell count without drug only; viability z-score with doxorubicin = 0.11; viability z-score without drug = -2.53
Cnih2 (cornichon family AMPA receptor auxiliary protein 2): combined z-score class = no change with or without drug; viability z-score with doxorubicin = -0.67; viability z-score without drug = -0.51
Gdf5 (growth differentiation factor 5): combined z-score class = no change with or without drug; viability z-score with doxorubicin = -1.12; viability z-score without drug = -0.51
Zkscan6 (zinc finger with KRAB and SCAN domains 6): combined z-score class = no change with or without drug; viability z-score with doxorubicin = -0.45; viability z-score without drug = 0.84
Dagla (diacylglycerol lipase, alpha): combined z-score class = no change with or without drug; viability z-score with doxorubicin = 0.67; viability z-score without drug = 1.85
F10 (coagulation factor X): combined z-score class = low cell count with doxorubicin only (active); viability z-score with doxorubicin = -2.36; viability z-score without drug = -0.51
Lgi2 (leucine-rich repeat LGI family, member 2): combined z-score class = no change with or without drug; viability z-score with doxorubicin = 0.34; viability z-score without drug = 0.51
Spata31d1a (spermatogenesis associated 31 subfamily D, member 1A): combined z-score class = no change with or without drug; viability z-score with doxorubicin = -1.12; viability z-score without drug = 0.34
Chchd2 (coiled-coil-helix-coiled-coil-helix domain containing 2): combined z-score class = low cell count with doxorubicin only (active); viability z-score with doxorubicin = -2.25; viability z-score without drug = -0.67
3830403N18Rik (RIKEN cDNA 3830403N18 gene): combined z-score class = no change with or without drug; viability z-score with doxorubicin = 1.24; viability z-score without drug = 0.34
Ddx19b (DEAD box helicase 19b): combined z-score class = low cell count with doxorubicin only (active); viability z-score with doxorubicin = -2.25; viability z-score without drug = -0.84
Dnajb9 (DnaJ heat shock protein family (Hsp40) member B9): combined z-score class = no change with or without drug; viability z-score with doxorubicin = 0; viability z-score without drug = 0.67
Mbnl2 (muscleblind like splicing factor 2): combined z-score class = low cell count with doxorubicin only (active); viability z-score with doxorubicin = -4.05; viability z-score without drug = -1.85
Snx2 (sorting nexin 2): combined z-score class = no change with or without drug; viability z-score with doxorubicin = 0; viability z-score without drug = 0.17
Otog (otogelin): combined z-score class = low cell count with and without drug; viability z-score with doxorubicin = -2.14; viability z-score without drug = -2.19
Tafazzin (tafazzin, phospholipid-lysophospholipid transacylase): combined z-score class = no change with or without drug; viability z-score with doxorubicin = -0.9; viability z-score without drug = -1.18
Dennd2b (DENN domain containing 2B): combined z-score class = no change with or without drug; viability z-score with doxorubicin = -0.11; viability z-score without drug = 0.17
Pabir2 (PABIR family member 2): combined z-score class = no change with or without drug; viability z-score with doxorubicin = 0.67; viability z-score without drug = -0.17
Or4c3d (olfactory receptor family 4 subfamily C member 3D): combined z-score class = no change with or without drug; viability z-score with doxorubicin = 0.67; viability z-score without drug = -0.67
Arfgap1 (ARF GTPase activating protein 1): combined z-score class = low cell count with and without drug; viability z-score with doxorubicin = -3.26; viability z-score without drug = -2.7
Or4f54 (olfactory receptor family 4 subfamily F member 54): combined z-score class = low cell count with doxorubicin only (active); viability z-score with doxorubicin = -2.02; viability z-score without drug = -1.85
Ermard (ER membrane associated RNA degradation) #1: combined z-score class = no change with or without drug; viability z-score with doxorubicin = 0.34; viability z-score without drug = -0.34
Ermard (ER membrane associated RNA degradation) #2: combined z-score class = no change with or without drug; viability z-score with doxorubicin = -0.67; viability z-score without drug = 0
P2rx3 (purinergic receptor P2X, ligand-gated ion channel, 3): combined z-score class = no change with or without drug; viability z-score with doxorubicin = -0.22; viability z-score without drug = -1.18
Irgm2 (immunity-related GTPase family M member 2): combined z-score class = no change with or without drug; viability z-score with doxorubicin = -0.22; viability z-score without drug = -0.84
Gnl3 (guanine nucleotide binding protein nucleolar 3): combined z-score class = no change with or without drug; viability z-score with doxorubicin = -1.35; viability z-score without drug = -0.84
Ogfod3: combined z-score class = no change with or without drug; viability z-score with doxorubicin = -1.57; viability z-score without drug = -0.34
Or5p62 (olfactory receptor family 5 subfamily P member 62): combined z-score class = no change with or without drug; viability z-score with doxorubicin = -0.45; viability z-score without drug = -1.18

Targets listed so far whose target name starts with E or e:
Ermard (ER membrane associated RNA degradation) #1: combined z-score class = no change with or without drug; viability z-score with doxorubicin = 0.34; viability z-score without drug = -0.34
Ermard (ER membrane associated RNA degradation) #2: combined z-score class = no change with or without drug; viability z-score with doxorubicin = -0.67; viability z-score without drug = 0
